Reference: PMC11584650, “An inhibitory segment within G-patch activators tunes Prp43-ATPase activity during ribosome assembly” (Nature Communications, 2024)
These are yes or no findings as the source states them, for the method shown. Binding seen in cells or lysates may run through a third protein. Here binding means that the protein was enriched with, or labelled near, the bait; the list need not be complete. One block for each binder: values may come before it.

Sequences of proteins named here, by UniProt entry; tags and fusion partners are left off.
UniProt P53131: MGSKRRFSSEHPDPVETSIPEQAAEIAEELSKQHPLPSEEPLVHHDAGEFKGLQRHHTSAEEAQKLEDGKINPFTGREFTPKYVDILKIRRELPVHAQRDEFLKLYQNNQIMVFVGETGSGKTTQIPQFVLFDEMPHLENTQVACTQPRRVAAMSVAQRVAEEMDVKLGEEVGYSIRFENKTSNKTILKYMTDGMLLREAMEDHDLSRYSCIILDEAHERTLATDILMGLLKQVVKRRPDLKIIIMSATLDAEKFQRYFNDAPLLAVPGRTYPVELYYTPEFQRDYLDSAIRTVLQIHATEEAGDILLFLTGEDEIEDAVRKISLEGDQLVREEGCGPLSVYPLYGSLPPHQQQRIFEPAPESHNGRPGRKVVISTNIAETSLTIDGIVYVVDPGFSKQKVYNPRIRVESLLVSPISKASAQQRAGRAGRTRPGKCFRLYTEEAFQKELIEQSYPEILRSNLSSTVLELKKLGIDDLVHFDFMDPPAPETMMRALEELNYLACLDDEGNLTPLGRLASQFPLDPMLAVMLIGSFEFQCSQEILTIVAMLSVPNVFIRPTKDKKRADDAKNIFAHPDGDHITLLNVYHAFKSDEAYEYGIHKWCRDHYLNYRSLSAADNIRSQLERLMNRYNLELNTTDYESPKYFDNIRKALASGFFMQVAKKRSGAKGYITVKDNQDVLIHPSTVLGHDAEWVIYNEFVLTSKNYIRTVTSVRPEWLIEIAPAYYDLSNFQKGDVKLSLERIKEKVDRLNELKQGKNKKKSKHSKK

Target: Prp43-TAP (S. cerevisiae) (UniProt P53131)
Assay: affinity purification with mass spectrometry; Prp43-TAP purified from yeast lysate (IgG Sepharose, TEV elution, Calmodulin Sepharose, EGTA elution); eluate analysed by label-free quantitative mass spectrometry; untagged BY4741 as control

- binding: binds
B1: Pfa1 (protein, UniProt P53866 1-767)
chain: MAKRHSHYQGSRRRHARGSNSKKAGRGNAKGIQGRKIKKKPTPTNSWHNSSIPLGEGDLDDVGADFNPGRAFISPKTIEDYYFGRDAKSRSMKMGGLRPGNRYDSSTDLQAGRAAFRKRPMQFVKAKEVYDPSHNMIQKLRAKNETKNSEEIVEREADVFEEPGKMTSDVEYINNEDSENEDDDSQNSPSTDHSLSSNESKVEDGDLFFVDEEAQQSPDLTKIKRVCIEEIARPREVAIEFDPILTIGKVELSVSEGNESKEISVDVPNKGNKTYHPFAGYISNVLHGMHTSDSDNDELDYEIETENNSEPLYESSASSEVDQGFNYVGQRHNSRADNNLLPSPSPQLTEDIKCLSINGTKTFEGNNDNLPSPASEELEFGFKEEDFVINTNDIVVSNIRMGGVDNSYYLRCYRLLGDYDFHWIDQDLLTDFVVDELGLPEDRLPAYLNFIKNSLIPKIEPAEPTYSDIPISDSSDEGDSYEGDSYEDDEDMASSVVHSDIEEGLDDLIAYTLKHDTERFKTFETKSLETKGKGKKKKLLIDDALALDTETLETLQSKFSKRIETKAKKRKAKEDFIDQENRNSNDMLKKYPYGLHIQNIKDEFESFLSRNNDRLTFPPLDPHGNKTVMKIAKHYNMKSSKIGKANHTSVVVEKIKKTKWSSPNYSLIDQLMRQRPVFMRIDIRRPREEQAAFERTKTIRGKFHVKEGEIVGQNAPEIGNENIGRRMLEKLGWKSGEGLGIQGNKGISEPIFAKIKKNRSGLRHSES

- binding: binds
B2: Ntr1 (protein, UniProt Q06411 1-708)
chain: MEDSDSNTDKKFFFKKRRIDSYNYSDEEDNNSSMNSDMTYTNDALKTSSGNAPTISKLTKTYGIGAKLLSSMGYVAGKGLGKDGSGITTPIETQSRPMHNAGLGMFSNTNSSNYHSENEDYLSSEDEVVEGIEQVKFNKTSTEVLGEALLNDSGDMTIVRTLRELRLAGVQLPESILKELDPLNAVPKPKKDVVVEILQELLGIEKSLEAIRQRTSPLEVQVKEYYGQERLLSELEVTLRDESKHVSLYDKIGAILKLSDDELIDRLTSCLLRKELLIEFDLDHLEKPNDILDELTQIIELLAYRMDTTSKFLNRTQTTIFKVIYPKLKKFWEGFDMTKSKIDSAITLLLDFQQVLSFIGCKEHIMEEFVYPKLLQELDNWELHDEVDHVSPRIWVLDFMVLIDDKIKDTIVDKIEAKFFAYCKNWYHRESFCITNSDIIFIKELICERRYYKILCKEFLPKFLDELWERHNDPIYELEDWKEKQEWKEKDSGFFYFMKKLRSYTHYFHPKQYELMMRGTFNNINKILYQWHLYSTVEDLHKSKWWLNWLMNTVFEHSLPTEIELSEIRKSYNIFAMSHRYHLDKSTLDEDFDLRQGLRNLMETQVIDDISQSEQEPTYTVQNIPLGKVSSSFKDVVEDYCLEKGYLISKIPNRYTQLPYGRDQDCIVPLFEIRNGKKKMEVALKHDILWVEDSSGTFKPIYLWALDL

- binding: binds
B3: Pxr1 (protein, UniProt P53335 1-271)
chain: MGLAATRTKQRFGLDPRNTAWSNDTSRFGHQFLEKFGWKPGMGLGLSPMNSNTSHIKVSIKDDNVGLGAKLKRKDKKDEFDNGECAGLDVFQRILGRLNGKESKISEELDTQRKQKIIDGKWGIHFVKGEVLASTWDPKTHKLRNYSNAKKRKREGDDSEDEDDDDKEDKDSDKKKHKKHKKHKKDKKKDKKDKKEHKKHKKEEKRLKKEKRAEKTKETKKTSKLKSSESASNIPDAVNTRLSVRSKWIKQKRAALMDSKALNEIFMITND
